PubChem BioAssay AID504791 | Drosophila RNAi Screening Center | 2011
The deposit covers about 23,000 reagents; this is a random part of those that have a named target and a result. Over the whole deposit, 199 (0.86%) were called active. 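Plate-scaled ratios behind the calls are not deposited; printed light signals are raw; many rows marked increased or decreased are still called inactive.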 The numbers tell different reagents against one gene apart. Names joined by + are all predicted targets of the reagent. Not given: the direction of the score.

Aim: 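Genes whose knock-down strengthens or weakens small-RNA reporter silencing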 (primary screen)
Cell system: Drosophila S2-derived reporter cells
Reagent: long dsRNA against Drosophila genes, about 150-250 ng dsRNA per well (siRNA assay); about 80-120 ng (miRNA assay)
Time to read-out: about 5 days (siRNA assay); about 4 days (miRNA assay)
Treatment: copper sulfate induction of reporters: 25 µM (siRNA assay); 200 mM stated (miRNA assay), 1-2 days before reading
Measured: 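Dual luciferase assay: Renilla to firefly signal ratio in each well, scaled to the mean ratio of its plate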
Rule for the call: 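a well was a first-pass pick when its plate-scaled ratio rose above 1.5 (siRNA assay) or 1.6 (miRNA assay), or dropped below 0.6; a gene counted only if two separate dsRNAs agreed on retest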

| target | reagent no. | stable siRNA reporter change | miRNA reporter change | stable assay Renilla, run 1 (luminescence) | stable assay firefly, run 1 (luminescence) | Call |
| --- | --- | --- | --- | --- | --- | --- |
| Non2 | 1 | – | – | 11410 | 3.80e5 | inactive |
| CG4282 | 1 | – | – | 9773 | 3.58e5 | inactive |
| fan | 1 | – | – | 5987 | 3.20e5 | inactive |
| CG6961 + CG18259 | 1 | – | – | 6278 | 4.29e5 | inactive |
| CG6961 + CG18259 | 2 | – | – | 7611 | 4.52e5 | inactive |
| dmrt99B | 1 | – | – | 5303 | 2.20e5 | inactive |
| dmrt99B | 2 | – | – | 4272 | 3.60e5 | inactive |
| CG13288 | 1 | – | – | 6383 | 5.42e5 | inactive |
| CG5013 | 1 | – | – | 6902 | 3.37e5 | inactive |
| CG12204 | 1 | – | – | 6504 | 5.76e5 | inactive |
| side-IV + CG17025 (retired record) | 1 | – | – | 7378 | 4.32e5 | inactive |
| Rox8 | 1 | – | – | 5395 | 2.85e5 | inactive |
| alpha-Est5 | 1 | – | – | 7891 | 4.87e5 | inactive |
| Ugt37C1 | 1 | – | – | 7106 | 3.83e5 | inactive |
| drn | 1 | – | – | 6488 | 4.63e5 | inactive |
| CR42532 | 1 | – | – | 6348 | 3.80e5 | inactive |
| Tep3 | 1 | – | – | 11103 | 6.38e5 | inactive |
| aph-1 | 1 | – | – | 10687 | 4.13e5 | inactive |
| CG1827 | 1 | – | – | 7758 | 3.90e5 | inactive |
| Lis-1 | 1 | – | – | 6750 | 3.21e5 | inactive |
| arr | 1 | – | – | 6094 | 2.94e5 | inactive |
| CG1965 | 1 | – | – | 4120 | 3.55e5 | inactive |
| CG1965 | 2 | – | – | 9811 | 5.90e5 | inactive |
| Oatp33Eb | 1 | – | – | 7635 | 4.72e5 | inactive |
| CG8944 | 1 | – | – | 4311 | 3.42e5 | inactive |
| CG8944 | 2 | – | – | 9921 | 5.63e5 | inactive |
| CG13557 | 1 | – | – | 5992 | 3.85e5 | inactive |
| CG5104 | 1 | – | – | 7294 | 4.33e5 | inactive |
| CG5388 | 1 | – | – | 7347 | 3.70e5 | inactive |
| CG3434 | 1 | – | – | 7371 | 4.14e5 | inactive |
| Mur11Da | 1 | – | – | 4806 | 3.82e5 | inactive |
| Fbp1 | 1 | – | – | 7234 | 4.17e5 | inactive |
| CG1138 | 1 | – | – | 6594 | 3.99e5 | inactive |
| CG32026 | 1 | – | – | 4280 | 3.58e5 | inactive |

Laid out differently: entries from further up.
{"target": "side-IV + CG17025 (retired record)", "reagent no.": 1, "stable assay Renilla, run 1 (luminescence)": 7378, "stable assay firefly, run 1 (luminescence)": 4.32e5, "Call": "inactive"}
{"target": "Rox8", "reagent no.": 1, "stable assay Renilla, run 1 (luminescence)": 5395, "stable assay firefly, run 1 (luminescence)": 2.85e5, "Call": "inactive"}
{"target": "alpha-Est5", "reagent no.": 1, "stable assay Renilla, run 1 (luminescence)": 7891, "stable assay firefly, run 1 (luminescence)": 4.87e5, "Call": "inactive"}
{"target": "Ugt37C1", "reagent no.": 1, "stable assay Renilla, run 1 (luminescence)": 7106, "stable assay firefly, run 1 (luminescence)": 3.83e5, "Call": "inactive"}
{"target": "drn", "reagent no.": 1, "stable assay Renilla, run 1 (luminescence)": 6488, "stable assay firefly, run 1 (luminescence)": 4.63e5, "Call": "inactive"}
{"target": "CR42532", "reagent no.": 1, "stable assay Renilla, run 1 (luminescence)": 6348, "stable assay firefly, run 1 (luminescence)": 3.80e5, "Call": "inactive"}
{"target": "Tep3", "reagent no.": 1, "stable assay Renilla, run 1 (luminescence)": 11103, "stable assay firefly, run 1 (luminescence)": 6.38e5, "Call": "inactive"}
{"target": "aph-1", "reagent no.": 1, "stable assay Renilla, run 1 (luminescence)": 10687, "stable assay firefly, run 1 (luminescence)": 4.13e5, "Call": "inactive"}

The listing continues:
| target | reagent no. | stable siRNA reporter change | miRNA reporter change | stable assay Renilla, run 1 (luminescence) | stable assay firefly, run 1 (luminescence) | Call |
| --- | --- | --- | --- | --- | --- | --- |
| Ir56d | 1 | – | – | 6931 | 3.56e5 | inactive |
| alphaTry | 1 | – | – | 6392 | 3.79e5 | inactive |
| tsl | 1 | – | – | 8327 | 4.27e5 | inactive |
| Pepck2 | 1 | – | – | 6118 | 3.59e5 | inactive |
| CG1750 | 1 | – | – | 6574 | 5.26e5 | inactive |
| insc | 1 | – | – | 6902 | 3.81e5 | inactive |
| UQCR-C1 | 1 | reporter ratio lowered past the hit cutoff | – | 6479 | 5.72e5 | inactive |
| CG11147 | 1 | – | – | 6956 | 3.88e5 | inactive |
| CG4291 | 1 | – | – | 31010 | 1.03e5 | inactive |
| Rpt3R | 1 | – | reporter ratio raised past the hit cutoff | 6975 | 3.32e5 | inactive |
| trpl | 1 | – | – | 6943 | 4.85e5 | inactive |
| trpl | 2 | reporter ratio lowered past the hit cutoff | – | 2811 | 4.49e5 | inactive |
| bin3 | 1 | – | – | 7099 | 5.21e5 | inactive |
| CG14841 | 1 | – | – | 8082 | 5.46e5 | inactive |
| CG11617 | 1 | – | – | 6946 | 3.88e5 | inactive |
| CG11617 | 2 | – | – | 10581 | 6.00e5 | inactive |
| ND-51 | 1 | – | – | 1.51e5 | 3.06e5 | inactive |
| Su(z)2 | 1 | – | reporter ratio lowered past the hit cutoff | 4583 | 2.09e5 | inactive |
| Su(z)2 | 2 | – | – | 5683 | 4.10e5 | inactive |
| Rab6 | 1 | – | – | 1.48e5 | 2.63e5 | inactive |
| tey | 1 | – | – | 5944 | 4.92e5 | inactive |
| tey | 2 | – | – | 10115 | 6.05e5 | inactive |
| CG42562 | 1 | – | – | 6570 | 3.72e5 | inactive |
